From article PMC7819943, “Rice protein-binding microarrays: a tool to detect cis-acting elements near promoter regions in rice” come the findings set out here.

The other results are listed elsewhere or left out.

For this assay, the target named is T1, OsSMF1 (Oryza sativa, UniProt Q6ZLB0 1-436).
T1 sequence: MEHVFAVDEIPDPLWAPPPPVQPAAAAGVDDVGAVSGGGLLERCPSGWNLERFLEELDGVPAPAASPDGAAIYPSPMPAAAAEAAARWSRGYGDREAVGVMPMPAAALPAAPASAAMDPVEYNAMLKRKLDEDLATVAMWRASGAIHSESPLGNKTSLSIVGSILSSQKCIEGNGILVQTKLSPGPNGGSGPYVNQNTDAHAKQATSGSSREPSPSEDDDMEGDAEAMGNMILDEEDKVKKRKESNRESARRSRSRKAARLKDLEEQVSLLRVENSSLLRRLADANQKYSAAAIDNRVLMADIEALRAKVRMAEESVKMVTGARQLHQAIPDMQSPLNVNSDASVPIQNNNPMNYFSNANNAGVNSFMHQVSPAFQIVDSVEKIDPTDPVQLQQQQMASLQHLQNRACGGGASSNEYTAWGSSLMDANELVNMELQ
Kind of assay: protein-binding microarray (RPBM); PBS, 2% BSA, 51.3 ng/ul salmon testes DNA, 50 uM zinc acetate, 200 nM TF, 25 C, 1 h; high values mean tight binding. The conditions noted are these: protein: recombinant; tags: N-terminal polyhistidine and DsRed monomer fusion (pET32a); chain copies: 2; label: CyDye5-dUTP incorporated in the synthesized complementary strand; 3' TTTTT single-stranded linker to array surface; dsDNA, one strand shown. In outline:
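The binding signal for each feature is its fluorescence intensity in arbitrary units. An Axon 4000B scanner was used to read a custom Agilent array that had been made double-stranded with Cy5-dUTP primer extension, blocked with 2% BSA, incubated at 25 °C for 1 h with 200 nM protein in PBS, 2% BSA, salmon testes DNA and 50 µM zinc acetate, and washed. The protein was an N-terminal polyhistidine–DsRed transcription factor fusion from E. coli BL21-CodonPlus, purified on Ni–NTA.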
With “TATTTTGGAGCGGACGAAGTAATAATATAGTACACGTCGGCGGAGTCACCTAGTGCAG”, the binding signal was 5310 fluorescence intensity (a.u.).
For “CGAATATTCTTTTGCCACGTTAGCTAGCCACGCGCGCGCCCGGAGTCACCTAGTGCAG”, the binding signal was 13500 fluorescence intensity (a.u.).
For “TTTGCTCGTTGGCAGCGGCCAGCAGGCACGTGTAACGGCGCGGAGTCACCTAGTGCAG” the value was 4190 fluorescence intensity (a.u.); for “AGGTGGTTGATGACAGGGGCAAACACGGTGGGCCGGAGTGCGGAGTCACCTAGTGCAG”, 5850 fluorescence intensity (a.u.); for “AGTATCATTCGTCGGAAGAAGTGTATCTCATGAGTAGTCTCGGAGTCACCTAGTGCAG”, 3210 fluorescence intensity (a.u.).
Take “CGCAAAACCACAAATTTAAGGACGTGTATCACAATACTACCGGAGTCACCTAGTGCAG”: the binding signal was 5350 fluorescence intensity (a.u.).
For “GTATTGGTAGGTGATACGCCAGAGGGGAGCGGGCGTCCGCCGGAGTCACCTAGTGCAG” the value was 4570 fluorescence intensity (a.u.).
On to “ACACCACATTGTTAAATCATAGCGCAATTAGACTTAAAAGCGGAGTCACCTAGTGCAG”, for which the binding signal is 3460 fluorescence intensity (a.u.).
For “TACACTCGGCTTACCTCTCTTCGGCTCAAGCCATAACTGACGGAGTCACCTAGTGCAG” the value was 26600 fluorescence intensity (a.u.).
In the case of “AGCCAGTTACTCTTATTTAATCTTAGATGGATACGTGGCACGGAGTCACCTAGTGCAG”, the binding signal was 8260 fluorescence intensity (a.u.).
Turning to “AGAAGGGAGGTGAGGCTGACATATGGGGCCCACGTGAGCCCGGAGTCACCTAGTGCAG”, the binding signal is 3930 fluorescence intensity (a.u.).
Consider “CATCGTGGACTCCGGCACGACGCTGACATTCCTCGACCCACGGAGTCACCTAGTGCAG”, for which the binding signal was 3910 fluorescence intensity (a.u.).
Consider “TATGCACGCGCCACCCTCCGCGTTTCGCGAGGCCTCTCCTCGGAGTCACCTAGTGCAG”, for which the binding signal is 3290 fluorescence intensity (a.u.).
With “TATTCTAAATTTAGTGGTGGAGTCATACGTGTAGCTCACACGGAGTCACCTAGTGCAG”, the binding signal was 4390 fluorescence intensity (a.u.).
As for “TGCAAGCTAATCGAGTTGATGTAAGTTCATTGCCAGATCACGGAGTCACCTAGTGCAG”, the binding signal was 3260 fluorescence intensity (a.u.).
Take “TTTCAGATTCTCCCCACTCTCAACAGTGTTCACGGAAAACCGGAGTCACCTAGTGCAG”: the binding signal was 24900 fluorescence intensity (a.u.).
The figure for “AGCTGCCACGCTGGCACGAGGTCAGCGTCAGGTCCAGTGGCGGAGTCACCTAGTGCAG” is 21600 fluorescence intensity (a.u.).
As to “ATTAATCTGGCATCTATACTTATAAAGTCCACGAAAGCGTCGGAGTCACCTAGTGCAG”, the binding signal was 3500 fluorescence intensity (a.u.).
For “TGTCAGTGAGCTGGTTTACATTTCACCCTTGATTATGTATCGGAGTCACCTAGTGCAG” the value was 3300 fluorescence intensity (a.u.).
With “GTGGACTAATCTCCATGTCCATCCCATAAATCCCTCACACCGGAGTCACCTAGTGCAG”, the binding signal is 22100 fluorescence intensity (a.u.).
For the sequence “GCTCCCAATAATCCTACCAACATCGGCACAAATGCCGCCACGGAGTCACCTAGTGCAG”, the binding signal was 24000 fluorescence intensity (a.u.).
In the case of “GCCACCATCATGACAACACATAATTCTCACAGCCTAAATCCGGAGTCACCTAGTGCAG”, the binding signal was 4410 fluorescence intensity (a.u.).
For “AAGTCTTTACGTCATACCAAGGCTTCGATATTGTTATCTCCGGAGTCACCTAGTGCAG” the value was 5380 fluorescence intensity (a.u.); for “GCCCGTACAGCCAACTCCACACCGCGTTCTGCAGCCACGTCGGAGTCACCTAGTGCAG”, 7120 fluorescence intensity (a.u.); for “GCGGCAGGTGGAGCGAGACTACGACGTGGACGGCACCGACCGGAGTCACCTAGTGCAG”, 3480 fluorescence intensity (a.u.).
For “AGCAGAGCTTTGCCCCGGGGCGTCGGCACGCACTGCCACCCGGAGTCACCTAGTGCAG”, the binding signal was 3690 fluorescence intensity (a.u.).
For “CCTCTCTCGCCGCAGATCCCAACGCCGCACACACACGCACCGGAGTCACCTAGTGCAG” the value was 3150 fluorescence intensity (a.u.); for “TGACTCTCACGCACTAATTACTACTCCACTTACATGGTTTCGGAGTCACCTAGTGCAG”, 3580 fluorescence intensity (a.u.); for “TTATCAGAATTGCAAAATTGTGCACCGAGACAGAGAGGCTCGGAGTCACCTAGTGCAG”, 29000 fluorescence intensity (a.u.).
For the sequence “GACGTCCTCCGTCGGATGAGTCGGACTGTCGGACGGTGGACGGAGTCACCTAGTGCAG”, the binding signal was 3290 fluorescence intensity (a.u.).
In the case of “GTATATATATGTCTTGTGTGTGCATGTGGATGAGTACGCACGGAGTCACCTAGTGCAG”, the binding signal was 3740 fluorescence intensity (a.u.).
On to “TATGTTTACTTTTATTATAGTATTTTATAAGATAAATCTACGGAGTCACCTAGTGCAG”, for which the binding signal is 34400 fluorescence intensity (a.u.).
Turning to “GGCAGGCAGGGGAACGCAAGGCATATCGTCGTCAATTCGTCGGAGTCACCTAGTGCAG”, the binding signal was 3240 fluorescence intensity (a.u.).
Turning to “AGGTTGACACCGTGGCGACGAGGAGGTCCGGCTCATCCTTCGGAGTCACCTAGTGCAG”, the binding signal is 4390 fluorescence intensity (a.u.).
Turning to “ATTAAATAAGCTGTCATTTAGAATGAAAGATGATGTGGCACGGAGTCACCTAGTGCAG”, the binding signal was 21700 fluorescence intensity (a.u.).
With “AGAAAAGGGGAAAGAAGGATAGGAGGCTGACGTGGATAACCGGAGTCACCTAGTGCAG”, the binding signal was 11500 fluorescence intensity (a.u.).
As to “CGACCGCGCCACACGCATCCCCACGCCACCCTAACCACACCGGAGTCACCTAGTGCAG”, the binding signal was 3280 fluorescence intensity (a.u.).
Turning to “CTGGGACCCACATCCGCGGATGTGGGCCCACGTAAGCAGTCGGAGTCACCTAGTGCAG”, the binding signal was 9600 fluorescence intensity (a.u.).
For “GCATTATATTAGTAGGTCGTGTATTATATTAGTAGGTACTCGGAGTCACCTAGTGCAG” the value was 4260 fluorescence intensity (a.u.); for “TGGGGATGGCTGGTGAAGTGGCAGATTAGGGCTGAAAGCTCGGAGTCACCTAGTGCAG”, 3850 fluorescence intensity (a.u.).
In the case of “TCTTCCTCAAAGTAAAATAGAAGCTAGGGCTAAGAGCCCACGGAGTCACCTAGTGCAG”, the binding signal was 65100 fluorescence intensity (a.u.).
Turning to “CGTGGTGGGCCCCACCCCGTCAGTGACACCGGGACGGGGTCGGAGTCACCTAGTGCAG”, the binding signal was 3210 fluorescence intensity (a.u.).
